Laboratory results published in patent US12520840B2, “Method for reducing parasite burden in a mosquito” (PRESIDENT AND FELLOWS OF HARVARD COLLEGE, priority 2018, dated 2026).
“Also recorded” adds a separate entry of the source. At least one structure is not confirmed: it was looked up by name or label, or the drawing left a doubt.

Assays:
P. falciparum [1] = assay: Ookinete immunofluorescent staining of mosquito midgut lumen 21 h post infection; assay type: in vivo, Plasmodium falciparum in Anopheles gambiae; settings: 21 h post P. falciparum infection
An. gambiae females [2] = assay: Survival assays of An. gambiae females after compound exposure (acute 48 h and long-term); design: species or system Anopheles gambiae; settings: in vivo
Experimental: Compound Exposures. Compounds (ATQ, ACE, HYD, PYR, PER, Millipore-Sigma, St. Louis, MO, USA) to be tested were dissolved in a suitable, volatile vehicle (Table S1) at stock concentrations of 3-10 mg/ml (0.3-1% w/v). Working concentrations of each compound were created through serial dilutions. To generate a compound-coated surface, a volume of working solution containing a known quantity of compound was added to 1 ml excess vehicle and transferred to a 6 cm diameter glass petri dish ([…]). Treated dishes were placed on a lateral shaker and left for 4 h or overnight until evaporation of the volatile vehicle, coating the compound to the glass substrate. Control plates were treated identically using only the acetone vehicle. A translucent plastic cup was placed over the coated surface to contain mosquitoes during exposure. A flap was cut into the base of the cup to allow the introduction of mosquitoes. Plates were used for 1 d and discarded. […]
Survival Assays. […] At 48 h post exposure the proportion of surviving mosquitoes in each group was determined. Differences in survival between control and compound-exposed mosquitoes were detected using Chi^2 analysis. […] Cages were checked daily for mortality, and dead mosquitos were removed and counted. […] Differences in median time-to-death between ATQ and control treatment groups were analyzed using a Log-Rank Mantell-Cox test.

P. falciparum [3] = assay: Plasmodium falciparum infection assay in An. gambiae females after tarsal exposure to a compound-coated surface (oocyst prevalence and intensity); assay type: in vivo, Plasmodium falciparum (NF54) in Anopheles gambiae; settings: for effect on prevalence of P. falciparum relative to controls: 1 mmol/m2, 6 minutes exposure
Experimental: Compound Exposures. Compounds (ATQ, ACE, HYD, PYR, PER, Millipore-Sigma, St. Louis, MO, USA) to be tested were dissolved in a suitable, volatile vehicle (Table S1) at stock concentrations of 3-10 mg/ml (0.3-1% w/v). Working concentrations of each compound were created through serial dilutions. To generate a compound-coated surface, a volume of working solution containing a known quantity of compound was added to 1 ml excess vehicle and transferred to a 6 cm diameter glass petri dish ([…]). Treated dishes were placed on a lateral shaker and left for 4 h or overnight until evaporation of the volatile vehicle, coating the compound to the glass substrate. Control plates were treated identically using only the acetone vehicle. A translucent plastic cup was placed over the coated surface to contain mosquitoes during exposure. A flap was cut into the base of the cup to allow the introduction of mosquitoes. Plates were used for 1 d and discarded. For exposures, 15-25 mosquitoes were introduced through the cup flap using a mouth aspirator and incubated on the treated surface for 6-60 min depending on the experimental parameters. Exposure plates were agitated once during exposure to discourage resting on the untreated walls and base of the cup. After exposure, plates were transferred to a clean 17.5 cm^3 cage (Bugdorm™, Megaview Science. Co. Taiwan).
Plasmodium falciparum Infection Assays. 5-d old An. gambiae females were exposed to compounds as described above. Immediately after exposure, females were transferred to a sealed, secure infection glovebox and provided an in vitro culture P. falciparum (NF54) gametocytes (1, 2) through a custom made, glass, water-heated membrane feeder. […] At 7-9 d post infectious blood meal (pIBM), females that had blood fed were vacuum aspirated into 80% ethanol, incubated for 10 minutes at −20° C., and transferred out of the secure feeding box into PBS on ice. Midguts were dissected out in PBS and stained with 0.2% w/v mercurochrome (in ddH2O) for 17 minutes. After staining, midguts were mounted on glass microscope slides in 0.02% w/v mercurochrome, and oocyst prevalence and intensity were determined by examination at 40× air objective on an inverted compound light microscope (Olympus Corporation, Waltham, MA).
Statistical Analysis. All statistical analyses were carried out using GraphPad Prism v7.0 for MacOSX (GraphPad Software Inc., La Jolla CA, USA). For infections, differences in prevalence were analyzed by Chi^2. In experiments where both treatment groups had individuals that produced >0 oocysts, differences in median oocyst burden between groups (intensity of infection) was analyzed using a Mann-Whitney Mean Ranks test. For multiple comparisons (e.g. FIG. 3) differences in prevalence between multiple groups were determined using pair-wise Chi^2 corrected for multiple comparisons (Bonferroni). Similarly, multiple comparisons of intensity were carried out using Wilcoxon with Dunn's post hoc. To determine IC50 from dose-response data, the mean relative inhibition (ATQ exposed prevalence/Control prevalence) was calculated for each tested dose and fit with a sigmoidal curve function using non-linear regression.

An. gambiae females [4] = assay: Egg development assay after infectious blood meal; assay type: in vivo, Anopheles gambiae; settings: 1 mmol/m^2 for 60 minutes, 3 d post infectious blood meal

| SMILES | ookinetes detected in midgut lumen (IFA, anti-PfS25) (P. falciparum [1]) | fitness costs to the mosquito (survival and reproductive output) (An. gambiae females [2]) | median oocyst intensity vs control (P. falciparum [3]; 10 μmol/m2, 6 min exposure) | prevalence of infection vs control (P. falciparum [3]; 10 μmol/m2, 6 min exposure) | blockade of P. falciparum development (P. falciparum [3]; 100 μmol/m^2, 60 minutes exposure) | effect on prevalence of P. falciparum relative to controls (P. falciparum [3]) | P. falciparum oocysts detected (P. falciparum [3]; 1 mmol/m^2 for 60 minutes) | killing of parasites at the ookinete stage (P. falciparum [3]; contact for 6 minutes, 100 μmol/m2) | production of eggs after an infectious blood meal (An. gambiae females [4]) |
| --- | --- | --- | --- | --- | --- | --- | --- | --- | --- |
| O=C1C(O)=C([C@H]2CC[C@H](c3ccc(Cl)cc3)CC2)C(=O)c2ccccc21 [ATQ, atovaquone] | No ookinete are detected | no fitness costs | significant reduction | significantly reduced | complete blockade | strongly reduced prevalence | No oocysts were detected | sufficient to kill all parasites | unaffected |
| CCc1nc(N)nc(N)c1-c1ccc(Cl)cc1 [PYR, pyrimethamine] | – | – | – | – | – | no detectable effect on infection; also recorded: Neither compound is capable of reducing the prevalence | – | – | – |
